Source: PubChem BioAssay AID1159599 (NIAID, 2016)

Test: 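Effect of knocking down TLR signalling components on Tnf reporter after LPS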
Cells: mouse RAW264.7 G9 macrophage reporter clone cells
Reagent: single siRNA against mouse genes
Duration: 48 to 72 h after siRNA transfection, LPS for the last 16 h
Treatment: LPS (Salmonella minnesota R595), 16 h before fixation; dose not stated
Detection: 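Nuclear mCherry from a Tnf promoter reporter imaged after LPS, background removed, robust z-score from per-plate median and MAD, averaged over replicates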
Reading the numbers: Tnf reporter z-score: higher = stronger Tnf promoter reporter signal after LPS
Rule for the call: 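Called active if the mean z-score over replicates passes 1.5 in either direction, up or down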
Meaning of the calls: active = strong change either way; inactive = little change
Shown is an unselected part of 756 reagents. 130 of them (17%) were called active. 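Calls are two-sided: actives include siRNAs that raised the Tnf reporter as well as ones that lowered it.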 Reagents against one gene are numbered here. Reagent sequences are not shown. Not given: the amount of reagent.

For Tradd (GeneID 71609) #1, how do the results read?
Tnf reporter z-score, replicate mean: 3.35; outcome: active

With Tradd (GeneID 71609) #2, what does the deposit list?
Tnf reporter z-score, replicate mean: -0.474; outcome: inactive

What did the screen give for Tradd (GeneID 71609) #3?
Tnf reporter z-score, replicate mean: 0.187; outcome: inactive

How did the screen score Tradd (GeneID 71609) #4?
Tnf reporter z-score, replicate mean: 0.528; outcome: inactive

How did the screen score Tradd (GeneID 71609) #5?
Tnf reporter z-score, replicate mean: -0.785; outcome: inactive

For Tradd (GeneID 71609) #6, how do the results read?
Tnf reporter z-score, replicate mean: -0.36; outcome: inactive

With Pik3r3 (GeneID 18710) #1, how do the results read?
Tnf reporter z-score, replicate mean: -0.865; outcome: inactive

With Pik3r3 (GeneID 18710) #2, what was measured?
Tnf reporter z-score, replicate mean: -0.429; outcome: inactive

How did the screen score Pik3r3 (GeneID 18710) #3?
Tnf reporter z-score, replicate mean: -0.779; outcome: inactive

For Pik3r3 (GeneID 18710) #4, what does the deposit list?
Tnf reporter z-score, replicate mean: -1.25; outcome: inactive

What did the screen give for Pik3r3 (GeneID 18710) #5?
Tnf reporter z-score, replicate mean: -0.0829; outcome: inactive

Which result is listed for Pik3r3 (GeneID 18710) #6?
Tnf reporter z-score, replicate mean: -1.18; outcome: inactive

What is on record for Sigirr (GeneID 24058) #1?
Tnf reporter z-score, replicate mean: -1.15; outcome: inactive

For Sigirr (GeneID 24058) #2, what was measured?
Tnf reporter z-score, replicate mean: -0.532; outcome: inactive

What is on record for Sigirr (GeneID 24058) #3?
Tnf reporter z-score, replicate mean: -1.23; outcome: inactive

For Sigirr (GeneID 24058) #4, how do the results read?
Tnf reporter z-score, replicate mean: 0.559; outcome: inactive

How did the screen score Sigirr (GeneID 24058) #5?
Tnf reporter z-score, replicate mean: -0.562; outcome: inactive

Which result is listed for Sigirr (GeneID 24058) #6?
Tnf reporter z-score, replicate mean: 0.484; outcome: inactive

With Mapk13 (GeneID 26415) #1, what does the deposit list?
Tnf reporter z-score, replicate mean: -0.999; outcome: inactive

Which result is listed for Mapk13 (GeneID 26415) #2?
Tnf reporter z-score, replicate mean: -1.38; outcome: inactive

With Mapk13 (GeneID 26415) #3, what was measured?
Tnf reporter z-score, replicate mean: -0.708; outcome: inactive

With Mapk13 (GeneID 26415) #4, what was measured?
Tnf reporter z-score, replicate mean: -1.28; outcome: inactive

With Mapk13 (GeneID 26415) #5, what was measured?
Tnf reporter z-score, replicate mean: -0.549; outcome: inactive

What did the screen give for Mapk13 (GeneID 26415) #6?
Tnf reporter z-score, replicate mean: -1.88; outcome: active

For Nfkb1 (GeneID 18033) #1, what does the deposit list?
Tnf reporter z-score, replicate mean: 0.326; outcome: inactive

With Nfkb1 (GeneID 18033) #2, what was measured?
Tnf reporter z-score, replicate mean: -1.13; outcome: inactive

Which result is listed for Nfkb1 (GeneID 18033) #3?
Tnf reporter z-score, replicate mean: 0.197; outcome: inactive

What is on record for Nfkb1 (GeneID 18033) #4?
Tnf reporter z-score, replicate mean: 0.951; outcome: inactive

How did the screen score Nfkb1 (GeneID 18033) #5?
Tnf reporter z-score, replicate mean: -0.362; outcome: inactive

With Nfkb1 (GeneID 18033) #6, what does the deposit list?
Tnf reporter z-score, replicate mean: 0.0131; outcome: inactive

For Akt3 (GeneID 23797) #1, what was measured?
Tnf reporter z-score, replicate mean: -0.632; outcome: inactive

With Akt3 (GeneID 23797) #2, how do the results read?
Tnf reporter z-score, replicate mean: -0.356; outcome: inactive

With Akt3 (GeneID 23797) #3, what does the deposit list?
Tnf reporter z-score, replicate mean: -1.45; outcome: inactive

What is on record for Akt3 (GeneID 23797) #4?
Tnf reporter z-score, replicate mean: -0.0747; outcome: inactive

With Akt3 (GeneID 23797) #5, how do the results read?
Tnf reporter z-score, replicate mean: -1.26; outcome: inactive

How did the screen score Akt3 (GeneID 23797) #6?
Tnf reporter z-score, replicate mean: -0.24; outcome: inactive

Which result is listed for Il12a (GeneID 16159) #1?
Tnf reporter z-score, replicate mean: 0.553; outcome: inactive

How did the screen score Il12a (GeneID 16159) #2?
Tnf reporter z-score, replicate mean: -1.82; outcome: active

With Il12a (GeneID 16159) #3, how do the results read?
Tnf reporter z-score, replicate mean: -1.77; outcome: active

What did the screen give for Il12a (GeneID 16159) #4?
Tnf reporter z-score, replicate mean: -0.261; outcome: inactive

Which result is listed for Il12a (GeneID 16159) #5?
Tnf reporter z-score, replicate mean: -1.81; outcome: active

With Il12a (GeneID 16159) #6, how do the results read?
Tnf reporter z-score, replicate mean: 0.614; outcome: inactive

For Tlr8 (GeneID 170744) #1, what was measured?
Tnf reporter z-score, replicate mean: 1.07; outcome: inactive

Which result is listed for Tlr8 (GeneID 170744) #2?
Tnf reporter z-score, replicate mean: -0.341; outcome: inactive

How did the screen score Tlr8 (GeneID 170744) #3?
Tnf reporter z-score, replicate mean: -0.34; outcome: inactive

What did the screen give for Tlr8 (GeneID 170744) #4?
Tnf reporter z-score, replicate mean: 0.784; outcome: inactive

Which result is listed for Tlr8 (GeneID 170744) #5?
Tnf reporter z-score, replicate mean: -2.05; outcome: active

How did the screen score Tlr8 (GeneID 170744) #6?
Tnf reporter z-score, replicate mean: 0.174; outcome: inactive

With Irak2 (GeneID 108960) #1, what was measured?
Tnf reporter z-score, replicate mean: -0.279; outcome: inactive

What is on record for Irak2 (GeneID 108960) #2?
Tnf reporter z-score, replicate mean: -0.937; outcome: inactive

What did the screen give for Irak2 (GeneID 108960) #3?
Tnf reporter z-score, replicate mean: -1.52; outcome: active

For Irak2 (GeneID 108960) #4, what does the deposit list?
Tnf reporter z-score, replicate mean: -0.182; outcome: inactive

With Irak2 (GeneID 108960) #5, what was measured?
Tnf reporter z-score, replicate mean: -1.79; outcome: active

How did the screen score Irak2 (GeneID 108960) #6?
Tnf reporter z-score, replicate mean: -1.63; outcome: active

For Rac1 (GeneID 19353) #1, what was measured?
Tnf reporter z-score, replicate mean: 0.618; outcome: inactive

How did the screen score Rac1 (GeneID 19353) #2?
Tnf reporter z-score, replicate mean: 0.549; outcome: inactive

With Rac1 (GeneID 19353) #3, what was measured?
Tnf reporter z-score, replicate mean: 0.147; outcome: inactive

With Rac1 (GeneID 19353) #4, what was measured?
Tnf reporter z-score, replicate mean: -0.219; outcome: inactive

Which result is listed for Rac1 (GeneID 19353) #5?
Tnf reporter z-score, replicate mean: -0.947; outcome: inactive

What did the screen give for Rac1 (GeneID 19353) #6?
Tnf reporter z-score, replicate mean: -0.299; outcome: inactive

Targets listed so far whose gene name begins with M or m (6):
Mapk13 (GeneID 26415) #1 → Tnf reporter z-score, replicate mean: -0.999; outcome: inactive
Mapk13 (GeneID 26415) #2 → Tnf reporter z-score, replicate mean: -1.38; outcome: inactive
Mapk13 (GeneID 26415) #3 → Tnf reporter z-score, replicate mean: -0.708; outcome: inactive
Mapk13 (GeneID 26415) #4 → Tnf reporter z-score, replicate mean: -1.28; outcome: inactive
Mapk13 (GeneID 26415) #5 → Tnf reporter z-score, replicate mean: -0.549; outcome: inactive
Mapk13 (GeneID 26415) #6 → Tnf reporter z-score, replicate mean: -1.88; outcome: active
